Source: PubChem BioAssay (NCATS)
Inconclusive means that the source gave no clear call. Such entries were picked first, then a sample of the others. Potencies of inconclusive entries are doubtful fits and often do not repeat. The source made the active and inactive calls. Calls come from the whole dose curve; as a rule, active = well fitted cell-killing curve with a large enough effect; inconclusive = small, poorly fitted or top-dose-only effect, or effect the other way; inactive = no such curve, though single readings can be large or run the other way.

assay: Quantitative highthroughput screen to assess conditional lethalithy of SEM cells grown in RPMI1640 with dialyzed fetal bovine serum (RPMI+ds) (AID 1963884); settings: SEM B-ALL cells, RPMI+dialyzed FBS, CellTiter-Glo viability, 48 h; series mostly up to 45.8 µM; viability: at the top concentration; note: nearly all actives have a fitted effect of over 35% in size
Text: Assay Provider: Jason Cantor Ph.D.
Department of Biochemistry
University of Wisconsin-Madison, Madison, WI, USA
Chemical screening studies have identified drug sensitivities across hundreds of cancer cell lines but most putative therapeutics fail to translate. Discovery and development of drug candidates in models that more accurately reflect nutrient levels in human blood is a major challenge. Here we performed high-throughput screens in conventional versus Human Plasma-Like Medium (HPLM) to identify compounds that were "missed" when screening using the artificial culture condition. Sets of conditional anticancer compounds spanned phases of clinical development and included non-oncology drugs were assessed. […] We also traced conditional phenotypes for several chemotherapeutics to availability of HPLM-specific metabolites and confirmed others for compounds whose reported targets are encoded by nonessential genes. Our findings establish generalizable strategies for exploiting conditional lethality in HPLM to reveal therapeutic candidates and mechanisms of action in cancer cells.
Described herein are the results of each viability screens against three cell lines: NOMO1 (an acute myeloid leukemia cell line); P12-Ichikawa (a T-cell acute lymphoblastic leukemia); and SEM (a B-cell ALL). Each assay was screened using 3 different cell culture media: homemade human plasma-Like medium with 10% dialyzed fetal bovine serum (HPLM+ds); RPMI1640 with 10% untreated FBS and 5mM glucose (RPMI+s); and RPMI1640 with 10% dialyzed fetal bovine serum and 5 mM glucose (RPMI+ds).
PROTOCOL TABLE (as described by Inglese J, Shamu CE and Guy RK. 2007)
SEQUENCE No. (e.g., 1, 2, 3, etc.); […] (e.g., Cells, Incubation, Reagent, etc.); VALUE and DESCRIPTION.
1; Cells; 5 uL; white, solid bottom 1536-well Greiner assay plate.
2; Compounds; 23 nL; Kalypsis pin tool (Wako USA) equipped with a 1536-well pin head to transfer to the assay plates.
3; Incubation; 48 hours; 37C incubation.
4; Reagent; 3 uL; CellTiter Glo (Promega).
5; Incubation; 5 min, room temperature
6; Detection; Luminescence, Viewlux PerkinElmer.
NOTES (numbers refer to Sequence numbers above)
1. Briefly, 5 ul of cell reagent was dispensed using a Multidrop Combi Dispenser. The NOMO1 and SEM cells were plated at 500 cells/well and the P12-Ichikawa line at 1000 cells/well.
2. After seeding the cells, 23 nL of MIPE 4.1 library compounds (in DMSO) were added to each plate using a Kalypsys 1536 Pintool dispenser. Bortezomib at final concentration of […] and DMSO were added to each plate as positive and negative controls respectively. For each screen, MIPE 4.1 compounds were added over an eleven-point concentration range […] in 3-fold dilutions.
3. Each plate was covered with a stainless steel gasketed lid to prevent evaporation and incubated for 48 hour at 37C, 95% relative humidity, and 5% CO2.
4-5. Three microliter CellTilter-GloTM luminescent substrate mix (Promega) reagent was added to the assay plate and incubated at room temperature for 5 min.
6. The luminescence signal was measured using a ViewLux (PerkinElmer) multiplate reader with a 2 second exposure time per plate. Data for each compound were normalized as percent viability such that measurements for DMSO and the empty well controls in each plate were defined as 100% and 0%, respectively.
Potency is the fitted concentration of half-maximal effect.

| SMILES | Potency | viability |
| --- | --- | --- |
| COc1ccc(C(CN(C)C)C2(O)CCCCC2)cc1 (stereo not given) | inconclusive: 0.0019 µM [rising, full curve, poor fit] | – |
| CCCN1CCO[C@@H]2c3cc(O)ccc3OC[C@@H]21 | inconclusive: 23.5 µM [cytotoxic, partial curve, poor fit] | – |
| C=C1C[C@H]2[C@H]3CCC(=O)[C@@]3(C)CC[C@@H]2[C@@]2(C)C=CC(=O)C=C12 | inconclusive: 11.8 µM [cytotoxic, single point] | – |
| C[C@@H]1[C@H](O)[C@@H](C)C=CC=CCCC=CC=CC=CC=C[C@H](O[C@H]2O[C@@H](C)[C@H](O)[C@@H](N)[C@@H]2O)CC2O[C@](O)(C[C@@H](O)[C@H](O)CC[C@@H](O)C[C@@H](O)C[C@@H](O)CC(=O)O[C@H]1C)C[C@H](O)[C@H]2C(=O)O | – | inactive: 105% |
| O=C(Oc1ccc([N+](=O)[O-])cc1)N1CCN(Cc2cccc(Oc3ccccc3)c2)CC1 | – | inactive: 101% |
| CC[C@H]1C=CC=CC[C@@H](C)[C@H](O)[C@@](C)(O)C(=O)[C@@H](C)[C@H](O)[C@@H](C)C(=O)[C@@H](C)[C@H](O)[C@@H](C)C=CC(=O)O[C@@H]2[C@@H](C)[C@H](CC1)O[C@]1(CC[C@H](C)[C@H](C[C@@H](C)O)O1)[C@H]2C | active: 4.69 µM | – |
| COc1ccc(N(C(=O)Oc2c(C)cccc2C)c2ccnc(Nc3ccc(N4CCN(C)CC4)cc3)n2)c(OC)c1 | inconclusive: 29.6 µM [cytotoxic, single point] | – |
| COc1ccc(CC2NCCc3cc(OC)c(OC)cc32)cc1OC (stereo not given) | inconclusive: 18.7 µM [cytotoxic, partial curve] | – |
| O=C(N[C@@H](COc1ccc2[nH]c(=O)[nH]c2c1)c1ccccc1)c1cccn(Cc2ccc(F)c(F)c2)c1=O | inconclusive: 3.72 µM [cytotoxic, full curve] | – |
| Cc1cccc(C)c1NC(=O)CN1CCCC1=O | – | inactive: 73.6% |
| Cc1[nH]nc2ccc(-c3cncc(OC[C@@H](N)Cc4c[nH]c5ccccc45)c3)cc12 | active: 0.418 µM | – |
| O=C(O)CCCc1ccc(N(CCCl)CCCl)cc1 | inconclusive: 23.5 µM [cytotoxic, single point] | – |
| COC1=CC(C)=C[C@@H](C)[C@@H](O)[C@@H](C)CC(C)=CC=C[C@H](OC)[C@H]([C@@H](C)[C@@H](O)[C@H](C)[C@@]2(O)C[C@@H](O)[C@H](C)[C@@H](C(C)C)O2)OC1=O | inconclusive: 0.0148 µM [cytotoxic, full curve] | – |
| CNCC(O)c1ccc(O)cc1 (stereo not given) | – | inactive: 78% |
| CC[C@@H](C(N)=O)N1CCCC1=O | inconclusive: 9.35 µM [cytotoxic, single point] | – |
| O=C(Oc1ccc([N+](=O)[O-])cc1)N1CCC(C(O)(c2ccc3c(c2)OCO3)c2ccc3c(c2)OCO3)CC1 | inconclusive: 2.64 µM [cytotoxic, partial curve, poor fit] | – |
| Cc1ncc(OC[C@@]2(c3cccc(F)c3)C[C@H]2C(=O)Nc2ccc(F)cn2)c(C)n1 | – | inactive: 76% |
| COC1(CS(=O)c2ccccc2)CCN(CCc2c[nH]c3ccc(F)cc23)CC1 (stereo not given) | – | inactive: 95.8% |
| COC[C@H]1OC(=O)c2coc3c2[C@@]1(C)C1=C(C3=O)C2CCC(=O)[C@@]2(C)C[C@H]1OC(C)=O (stereo not given in full) | inconclusive: 16.6 µM [cytotoxic, partial curve, poor fit] | – |
| CC(=CCCC1=CCC(C2=CC(=O)OC2O)OC1O)CCC1=C(C)CCCC1(C)C (stereo not given) | – | inactive: 106% |

| SMILES | Potency | viability |
| --- | --- | --- |
| CCOc1ccccc1-n1c(C(C)N2CCN(C(=O)COc3ccc(Cl)cc3)CC2)nc2ccccc2c1=O (stereo not given) | active: 0.588 µM | – |
| CC(=Cc1csc(C)n1)[C@@H]1C[C@H]2O[C@@H]2CCC[C@H](C)[C@@H](O)[C@@H](C)C(=O)C(C)(C)[C@@H](O)CC(=O)O1 | – | inactive: 18.3% |
| CC(C)CC(N(C)C)C1(c2ccc(Cl)cc2)CCC1 (stereo not given) | inconclusive: 3.72 µM [cytotoxic, full curve] | – |
| CCNC(=O)C[C@@H]1N=C(c2ccc(Cl)cc2)c2cc(OC)ccc2-n2c(C)nnc21 | active: 1.05 µM | – |
| CC(=O)O[C@@]12CO[C@H]1C[C@H](O)[C@@]1(C)C(=O)[C@H](O)C3=C(C)[C@@H](O)C[C@@](O)([C@@H](OC(=O)c4ccccc4)[C@@H]21)C3(C)C | inconclusive: 8.33 µM [cytotoxic, full curve, poor fit] | – |
| COc1cccc2c1[C@]13CCN(CC4CC4)[C@H](C2)[C@]1(OC)CCC(=O)C3 | – | inactive: 79.7% |
| CC(C)C[C@H](CN)CC(=O)O | inconclusive: 8.33 µM [cytotoxic, single point] | – |
| c1ccc2c(CN3CCNCC3)cccc2c1 | – | inactive: 71.3% |
| O=c1[nH]c2ccc(Cl)cc2c(N[C@@H]2CN3CCC2CC3)c1-c1nc2ccccc2[nH]1 | active: 0.0662 µM | – |
| COc1ccc(C(=O)c2c(C)n(CCN3CCOCC3)c3cc(I)ccc23)cc1 | inconclusive: 18.7 µM [cytotoxic, partial curve] | – |
| CCN1C[C@]2(OC(=O)c3ccccc3NC(C)=O)CC[C@H](OC)[C@@]34[C@H]5CC6[C@@H](OC)C[C@](O)(C(C[C@@H]23)[C@@H]14)[C@@]5(O)[C@@H]6OC | – | inactive: 89% |
| O=C(O)c1nn(Cc2ccc(Cl)cc2Cl)c2ccccc12 | – | inactive: 71% |
| O=C(O)CNC(=O)c1c(O)c2ccccc2n(Cc2ccccc2)c1=O | – | inactive: 104% |
| O=C1CCC[C@@H]2[C@H]3CCCN4CCC[C@@H](CN12)[C@@H]34 | – | inactive: 83% |
| CN1[C@H]2CC(O)C[C@H]1[C@H]1O[C@H]12 (stereo not given in full) | inconclusive: 23.5 µM [cytotoxic, partial curve, poor fit] | – |
| O=C(N[C@H]1CN2CCC1CC2)c1ccc(Cl)cc1 | – | inactive: 73.9% |
| C[C@]12CC[C@@H]3[C@@H](CCC4=CC(=O)CC[C@@H]43)[C@@H]1CC[C@@H]2OC(=O)CCc1ccccc1 | – | inactive: 91.8% |
| COc1cc2cc(c1Cl)N(C)C(=O)C[C@H](OC(=O)C(C)C)[C@]1(C)O[C@H]1[C@H](C)[C@@H]1C[C@@](O)(NC(=O)O1)[C@H](OC)C=CC=C(C)C2 | – | inactive: 1.62% |
| CCOC(=O)c1cncn1[C@H](C)c1ccccc1 | – | inactive: 95.2% |

Pulled by structure from above, 2 records:

| SMILES | Potency | viability |
| --- | --- | --- |
| C[C@]12CC[C@@H]3[C@@H](CCC4=CC(=O)CC[C@@H]43)[C@@H]1CC[C@@H]2OC(=O)CCc1ccccc1 | – | inactive: 91.8% |
| CC(=O)O[C@@]12CO[C@H]1C[C@H](O)[C@@]1(C)C(=O)[C@H](O)C3=C(C)[C@@H](O)C[C@@](O)([C@@H](OC(=O)c4ccccc4)[C@@H]21)C3(C)C | inconclusive: 8.33 µM [cytotoxic, full curve, poor fit] | – |
